PubChem BioAssay AID504786 | Drosophila RNAi Screening Center – 2011
In all, the deposit lists about 21,000 reagents; this is a random part of those with a known target gene and a result. 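Primary screen; positive scores mean lost reporter signal, so the sign may be inverted from the usual convention.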 A plus sign joins genes that one reagent is predicted to hit. No sequences are given here.

Test: 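Positive regulators of HIF-driven reporter output in Drosophila cells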 (primary screen)
Cell system: Drosophila S2 cells with a stable HIF luciferase reporter
Knock-down reagent: long dsRNA against Drosophila genes, about 0.2 µg dsRNA per well of a 384-well plate
Time to read-out: three days of knock-down, then 20 h of DFO before reading
Challenge: desferrioxamine (DFO) at 100 µM, an iron chelator that mimics hypoxia, for 20 h
Detection: 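HIF reporter luminescence in cells given 100 µM DFO for 20 h, using the mouse ldh-a hypoxia-response element, scored as per-plate z-scores; higher means greater loss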
Direction: z-score: higher = stronger loss of HIF reporter signal

target | dsRNA | z-score, replicate 1 | z-score, replicate 2 | z-score, replicate 3 | z-score, replicate 4
CG2121 | DRSC06819 | -0.3 | -0.5 | – | –
CG2121 | DRSC06820 | -0.3 | -0.2 | – | –
CG12065 | DRSC17798 | -0.3 | -0.5 | – | –
CG12065 | DRSC17799 | -0.3 | -0.3 | – | –
CG15412 | DRSC00427 | -0.3 | -0.3 | – | –
CG17159 + CG17162 | DRSC20899 | -0.3 | -0.6 | – | –
CG17159 + CG17162 | DRSC20900 | -0.4 | -0.4 | – | –
CG13108 | DRSC02206 | -0.3 | -0.3 | – | –
CG42747 | DRSC10209 | -0.3 | -0.4 | – | –
CG42747 | DRSC10210 | -0.3 | 1.9 | – | –
svp (seven up) | DRSC12899 | -0.2 | -0.3 | – | –
svp (seven up) | DRSC15311 | 4.4 | 6 | – | –
svp (seven up) | DRSC17075 | -0.4 | -0.6 | -0.5 | -0.2
inaE (inactivation no afterpotential E) | DRSC19376 | -0.3 | -0.7 | – | –
inaE (inactivation no afterpotential E) | DRSC19377 | -0.3 | -0.6 | – | –
inaE (inactivation no afterpotential E) | DRSC19379 | -0.1 | 0.1 | – | –
inaE (inactivation no afterpotential E) | DRSC19726 | -0.3 | -0.2 | – | –
Traf4 (TNF-receptor-associated factor 4) | DRSC00445 | 0.2 | 0.4 | – | –
Traf4 (TNF-receptor-associated factor 4) | DRSC00794 | -0.3 | -0.4 | – | –
PEK (pancreatic eIF-2alpha kinase) | DRSC12361 | -0.2 | 0 | – | –
side-II (sidestep II) | DRSC01427 | -0.6 | -0.2 | – | –
side-II (sidestep II) | DRSC01429 | -0.3 | -0.1 | – | –
side-II (sidestep II) | DRSC01913 | -0.4 | -0.3 | – | –
side-II (sidestep II) | DRSC01932 | -0.2 | -0.6 | -0.6 | -0.2
side-II (sidestep II) | DRSC02480 | -0.1 | -0.4 | – | –
CG5773 | DRSC06955 | -0.1 | -0.2 | – | –
CG5348 | DRSC06933 | -0.3 | 0 | – | –
CG12206 | DRSC17828 | -0.1 | 0.8 | – | –
CG9164 | DRSC19087 | 3.2 | 3.7 | – | –
CG9164 | DRSC20162 | -0.3 | -0.6 | – | –
Cib2 (Calcium and integrin binding family member 2) | DRSC04535 | -0.3 | -0.2 | – | –
CG17807 | DRSC04296 | -0.3 | -0.4 | – | –
Pbp95 (PSEA-binding protein 95kD) | DRSC15448 | 0.1 | -0.5 | – | –
CG9300 | DRSC11064 | 0.2 | 2.9 | – | –
CG34408 | DRSC17733 | -0.1 | -0.6 | – | –
Frq1 (Frequenin 1) | DRSC19961 | -0.4 | -0.8 | – | –
Wnt5 (Wnt oncogene analog 5) | DRSC20300 | -0.1 | 0.1 | – | –
FER (FER tyrosine kinase) | DRSC12735 | -0.2 | 0.5 | – | –
FER (FER tyrosine kinase) | DRSC16673 | 0.1 | -0.2 | – | –
msk (moleskin) | DRSC11340 | 0.4 | 0.7 | – | –
Abd-B (Abdominal B) | DRSC14098 | 0.1 | 0 | – | –
Abd-B (Abdominal B) | DRSC14337 | -0.7 | -0.6 | – | –
CG13049 | DRSC09930 | -0.4 | -0.3 | – | –
CG13654 | DRSC14654 | -0.2 | -0.6 | – | –
skd (skuld) | DRSC11898 | 0.8 | 0.5 | – | –
Btnd (Biotinidase) | DRSC18316 | -0.3 | 0.1 | – | –
Best4 (Bestrophin 4) | DRSC10792 | -0.3 | 2 | – | –
Su(Tpl) (Suppressor of Triplolethal) | DRSC10954 | 2.8 | 2.2 | – | –
Irk1 (Inwardly rectifying potassium channel 1) | DRSC16106 | -0.2 | -0.1 | – | –
esg (escargot) | DRSC03530 | 0 | -0.1 | – | –
Oscillin | DRSC03001 | -0.2 | -0.1 | – | –
CG5196 | DRSC15735 | -0.3 | 0.1 | – | –
CG3611 | DRSC04395 | 0.1 | -0.1 | – | –
Had2 (beta Hydroxy acid dehydrogenase 2) | DRSC05971 | -0.4 | -0.3 | – | –
TotC (Turandot C) | DRSC13449 | -0.2 | -0.3 | – | –
CG1105 | DRSC12528 | -0.4 | -0.4 | – | –
Rpt3R (Regulatory particle triple-A ATPase 3-related) | DRSC16501 | 2.2 | 1.7 | – | –
pod1 (pod1 coronin) | DRSC18362 | -0.1 | 0.6 | – | –
CG34305 | DRSC11995 | -0.5 | 0 | – | –
Droj2 (DnaJ-like-2) | DRSC16450 | 0.7 | 1.2 | – | –
CG42824 + CG42823 | DRSC13230 | -0.3 | -0.2 | – | –
CG15605 | DRSC06558 | -0.2 | -0.6 | – | –
CG34429 | DRSC10120 | -0.2 | -0.5 | – | –
Cht9 (Chitinase 9) | DRSC04079 | -0.2 | -0.6 | – | –
CG5623 | DRSC15848 | -0.2 | -0.3 | – | –
tobi (target of brain insulin) | DRSC14435 | -0.5 | 0.4 | – | –
CG33096 | DRSC14440 | -0.1 | -0.3 | – | –
CG9406 | DRSC04552 | -0.2 | -0.1 | – | –
me31B (maternal expression at 31B) | DRSC03569 | -0.4 | -0.7 | – | –
CG8319 | DRSC16407 | 0.2 | -0.2 | – | –
Fbp2 (Fat body protein 2) | DRSC03327 | -0.3 | -0.4 | – | –
Fib (Fibrillarin) | DRSC04614 | 1 | 2.5 | – | –
CG34376 | DRSC14695 | -0.1 | -0.9 | – | –
CG34376 | DRSC14696 | 0.7 | -0.6 | – | –
CG34376 | DRSC14701 | 0.5 | 0 | – | –
Strica (Ser/Thr-rich caspase) | DRSC04920 | -0.4 | -0.4 | – | –
Gug (Grunge) | DRSC11179 | -0.3 | 0 | – | –
wus (wurst) | DRSC20278 | -0.3 | -0.3 | – | –
bab2 (bric a brac 2) | DRSC08150 | 0 | 1.2 | – | –
bab2 (bric a brac 2) | DRSC08380 | 0.8 | -0.5 | – | –
Mst77F (Male-specific transcript 77F) | DRSC11871 | -0.3 | -0.4 | – | –
CG7215 + Prx5 | DRSC16214 | 0 | -0.1 | – | –
CG7215 + Prx5 | DRSC16215 | -0.3 | -0.4 | – | –
Start1 | DRSC04384 | -0.1 | -0.5 | – | –
CG10916 | DRSC06012 | -0.2 | 0 | – | –
CG5569 | DRSC04514 | -0.4 | -0.2 | – | –
CG30457 | DRSC06661 | -0.2 | -0.4 | – | –
CG15905 | DRSC06591 | -0.3 | -0.4 | – | –
Sbf (SET domain binding factor) | DRSC16852 | -0.5 | -1 | – | –
eya (eyes absent) | DRSC03510 | -0.2 | -0.2 | – | –
CG7551 | DRSC10876 | -0.1 | 0.1 | – | –
CG11590 | DRSC19411 | -0.4 | -0.8 | – | –
TAF1C-like | DRSC04073 | -0.3 | -0.5 | – | –
CG17806 | DRSC15276 | -0.3 | -0.6 | – | –
CG15602 | DRSC19671 | -0.4 | -0.6 | – | –
nopo (no poles) | DRSC06918 | -0.3 | -0.4 | – | –
Rab26 | DRSC11837 | 0.3 | 1 | – | –
Rab26 | DRSC11838 | -0.2 | 0.3 | – | –
Rab26 | DRSC11839 | -0.3 | 0.3 | – | –
CG9643 | DRSC00722 | 0.1 | -0.1 | – | –
Ets21C (Ets at 21C) | DRSC00751 | 0 | -0.4 | – | –
CG13033 | DRSC09913 | -0.2 | -0.2 | – | –
CG34001 | DRSC09042 | -0.3 | -0.4 | – | –
CR33317 (pseudo) | DRSC02653 | -0.2 | -0.3 | – | –
CG3868 | DRSC10380 | -0.3 | -0.3 | – | –
wol (wollknaeuel) | DRSC03077 | -0.3 | 1.3 | – | –

Reformatted: 5 of the entries above
target,dsRNA,"z-score, replicate 1","z-score, replicate 2","z-score, replicate 3","z-score, replicate 4"
Wnt5 (Wnt oncogene analog 5),DRSC20300,-0.1,0.1,,
FER (FER tyrosine kinase),DRSC12735,-0.2,0.5,,
FER (FER tyrosine kinase),DRSC16673,0.1,-0.2,,
msk (moleskin),DRSC11340,0.4,0.7,,
Abd-B (Abdominal B),DRSC14098,0.1,0,,
